Measurements: US20140179681A1, “METHODS AND COMPOSITIONS OF TARGETED DRUG DEVELOPMENT” (priority 2010, published 2014)

tested on: epithelial carcinoma A431 cell line; experiment: MTT Cell Proliferation Assay, A431 cells; format: cell-based; details: Table 10; ratio second/first value (MDBK/A431)
From the text: The following example describes the MTT Cell Proliferation Assay.
The MTT Cell Proliferation Assay is a colorimetric assay system that measures the reduction of the tetrazolium salt MTT (3-(4,5-dimethylthiazol-2-yl)-2,5-diphenyltetrazolium bromide) into insoluble formazan crystals, produced by the mitochondria of viable cells. […] The color can then be quantified by spectrophotometric means. Among the applications for the method are drug sensitivity, cytotoxicity, response to growth factors, and cell activation. The reduction of tetrazolium salts is now recognized as a safe, accurate alternative to radiometric testing.
Two replicates on each cell plate and 2 duplicate plates gave 4 individual replicates of each concentration, in each cell line. Concentrations were diluted in 100% DMSO from 25 mM stocks.
Twelve 96 well plates of each cell line were plated. Plating was done by dislodging cells as in passage protocol, counting on a hemocytometer, re-suspending in standard growth media, and plating using a multichannel pippetor.
16 μl of 25 mM stock+34 μl DMSO=8 mM starting concentrations, and serial diluted as with test compounds in same plate. […] Two replicates of each concentrations was run on each cell plate. All compound addition and cell treatments were done using aseptic technique under a laminar flow aseptic hood.
Control: 0.5% DMSO in treatment media was used as the control.
MTT dye (Thiazolyl Blue Tetrazolium Bromide, Sigma cat #M5655) stock was prepared in bulk and stored at 4° C. for use: 5 mgs/ml sterile PDS, shielded from light. 4 ul of this stock per 100 uls treatment media per well was used.
Plates were incubated overnight prior to treatment, with treatment day=Day 0. Compound treatments were prepared prior to washing cells to minimize time cells were dry at room temperature after final aspiration. Compounds were diluted in 100% DMSO in 96 well polypropylene plates: 40 μl 25 mM stock+10 μl DMSO=20 mM; 20 μl of 20 mM+30 μl DMSO=8 mM; 20 μl of 8 mM+30 μl DMSO=3.2 mM; 20 μl of 3.2 mM+30 μl DMSO=1.3 mM; 20 μl of 1.3 mM+30 μl DMSO=0.51 mM.
5.0 μl/ml were added to treatment media, in sterile, 2.2 ml deep well plates=0.5% dmso final. Ten μl of each dmso concentration was added to 2.0 ml of treatment media and then mixed using a 1200 μl multichannel pipettor. Cell plates were treated from the deep well plates. Treatment media was standard growth media containing 0.5% FBS and standard additions. This reduced FBS concentration allowed for a slower growth rate in cells.
Media was aspirated from cell plates, and washed with 200 μl/well sterile PBS. Aspirated PBS wash, and cell plates were treated with 200 μl of compound/treatment media per well, and incubated at 37° C., 5% CO2 for 3 days.
Prior to harvesting, visual observations were made under an inverted microscope. Plates were harvested by: aspirating the growth media; adding back MTT dye/100 μl treatment media; and incubating plates at 37° C. for 1 hour. MTT dye was aspirated. 100 μl/well dmso was added, and then shaken on a Bellco plate shaker for 5 minutes, at 4.5 setting.
Plates were read in a Tecan Sunrize UV plate reader, at 560 nm. Settings: Read mode, Outside Normal 2 sec; Shake settle time 3 sec. Data is reported as % inhibition, calculated for individual plates using control values from that plate.

Row | Compound | MTT assay (value in parentheses)
1 | COc1ccc(NC(=S)Nc2ccc(S(=O)(=O)Nc3ccccc3C)cc2)cc1OC [AD4-12527] | 0.74
2 | O=S(=O)(Nc1cc(Cl)cc(Cl)c1)c1ccc(NC(=S)Nc2ccc(Cl)c(Cl)c2)cc1 [AD4-12528] | 0.98
3 | CCOc1ccc(NC(=S)Nc2ccc(S(=O)(=O)Nc3cc(Cl)cc(Cl)c3)cc2)cc1 [AD4-12529] | 1.02
4 | COc1ccccc1NS(=O)(=O)c1ccc(NC(=S)Nc2ccc(OC)c(OC)c2)cc1 [AD4-12537] | 1.09
5 | COC(=O)c1sc2cc(NC(=S)Nc3ccc(S(=O)(=O)Nc4c(C)cc(C)cc4C)cc3)ccc2c1Cl [AD4-12560] | 0.59
6 | COc1ccc(NS(=O)(=O)c2ccc(NC(=S)Nc3ccccc3C(F)(F)F)cc2)cc1 [AD4-12577] | 0.89
7 | O=S(=O)(Nc1ccccc1)c1ccc(NC(=S)Nc2ccc(Cl)cc2)cc1 [AD4-12783] | 1.09
8 | CCC(C)c1ccc(NC(=S)Nc2ccc(S(=O)(=O)Nc3ccccc3)cc2)cc1 (stereo not shown) [AD4-12798] | 1.20
9 | CC1CCc2cc(F)ccc2N1S(=O)(=O)c1ccc(NC(=S)Nc2ccc(Br)cc2)cc1 (stereo not shown) [AD4-12813] | 1.16
10 | CC(C)c1ccc(NC(=S)Nc2ccc(S(=O)(=O)Nc3ccccc3)cc2)cc1 [AD4-12820] | 0.99
11 | O=S(=O)(Nc1ccccc1)c1ccc(NC(=S)Nc2ccc(Cl)cc2Cl)cc1 [AD4-12822] | 1.02
12 | CCCCc1ccc(NC(=S)Nc2ccc(S(=O)(=O)Nc3ccccc3)cc2)cc1 [AD4-12823] | 1.00
13 | CC(=O)c1cccc(NC(=S)Nc2ccc(S(=O)(=O)N3c4ccc(F)cc4CCC3C)cc2)c1 (stereo not shown) [AD4-12825] | 0.81
14 | CC1CCc2cc(F)ccc2N1S(=O)(=O)c1ccc(NC(=S)Nc2ccc(Cl)c(Cl)c2)cc1 (stereo not shown) [AD4-12827] | 0.99
15 | CC1CCc2cc(F)ccc2N1S(=O)(=O)c1ccc(NC(=S)Nc2ccc3c(c2)OCO3)cc1 (stereo not shown) [AD4-12828] | 2.38
16 | Cc1ccc(Cl)cc1NC(=S)Nc1ccc(S(=O)(=O)N2c3ccc(F)cc3CCC2C)cc1 (stereo not shown) [AD4-12829] | 1.01
17 | CC1CCc2cc(F)ccc2N1S(=O)(=O)c1ccc(NC(=S)Nc2ccc(Br)cc2Cl)cc1 (stereo not shown) [AD4-12832] | 2.11
18 | O=S(=O)(Nc1ccccc1)c1ccc(NC(=S)Nc2ccc(Cl)c(Cl)c2)cc1 [AD4-12833] | 1.00
19 | O=S(=O)(Nc1ccccc1)c1ccc(NC(=S)Nc2cccc(C(F)(F)F)c2)cc1 [AD4-12835] | 0.96
20 | CC1CCc2cc(F)ccc2N1S(=O)(=O)c1ccc(NC(=S)Nc2ccc(F)c(Cl)c2)cc1 (stereo not shown) [AD4-12836] | 0.90
21 | CC1CCc2cc(F)ccc2N1S(=O)(=O)c1ccc(NC(=S)Nc2cccc(F)c2)cc1 (stereo not shown) [AD4-12837] | 0.90
22 | O=S(=O)(Nc1ccccc1)c1ccc(NC(=S)Nc2cccc(Cl)c2)cc1 [AD4-12842] | 0.83
23 | Cc1ccc(NC(=S)Nc2ccc(S(=O)(=O)Nc3ccccc3)cc2)cc1Cl [AD4-12844] | 0.90
24 | CC1CCc2cc(F)ccc2N1S(=O)(=O)c1ccc(NC(=S)Nc2ccc(F)cc2)cc1 (stereo not shown) [AD4-12850] | 1.13
25 | O=S(=O)(Nc1ccccc1)c1ccc(NC(=S)Nc2ccc(F)c(Cl)c2)cc1 [AD4-12851] | 0.83
26 | CC1CCc2cc(F)ccc2N1S(=O)(=O)c1ccc(NC(=S)Nc2cccc(Cl)c2Cl)cc1 (stereo not shown) [AD4-12853] | 0.86
27 | CCc1ccc(NC(=S)Nc2ccc(S(=O)(=O)Nc3ccccc3)cc2)cc1 [AD4-12854] | 1.23
28 | O=S(=O)(Nc1ccccc1)c1ccc(NC(=S)Nc2cc(Cl)ccc2Cl)cc1 [AD4-12855] | 0.92
